Laboratory results taken from the supplement of paper PMC10849652.
Some of the results follow.

Chains of the proteins cited; added tags and fusions are not shown. Lines headed by an entry give the natural chain unless they say otherwise; changes in a name come on top.
UniProt O43913: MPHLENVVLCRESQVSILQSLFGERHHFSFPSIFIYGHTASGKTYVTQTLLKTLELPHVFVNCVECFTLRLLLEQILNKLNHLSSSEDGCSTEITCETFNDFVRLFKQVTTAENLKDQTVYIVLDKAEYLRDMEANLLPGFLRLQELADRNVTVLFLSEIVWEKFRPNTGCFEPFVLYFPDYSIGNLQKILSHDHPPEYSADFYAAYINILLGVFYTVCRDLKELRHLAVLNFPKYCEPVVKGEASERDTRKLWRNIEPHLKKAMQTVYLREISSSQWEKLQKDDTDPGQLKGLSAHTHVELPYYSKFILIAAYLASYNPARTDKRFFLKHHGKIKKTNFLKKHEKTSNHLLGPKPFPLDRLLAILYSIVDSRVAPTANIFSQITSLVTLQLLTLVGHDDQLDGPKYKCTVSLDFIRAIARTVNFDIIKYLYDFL
UniProt P04181: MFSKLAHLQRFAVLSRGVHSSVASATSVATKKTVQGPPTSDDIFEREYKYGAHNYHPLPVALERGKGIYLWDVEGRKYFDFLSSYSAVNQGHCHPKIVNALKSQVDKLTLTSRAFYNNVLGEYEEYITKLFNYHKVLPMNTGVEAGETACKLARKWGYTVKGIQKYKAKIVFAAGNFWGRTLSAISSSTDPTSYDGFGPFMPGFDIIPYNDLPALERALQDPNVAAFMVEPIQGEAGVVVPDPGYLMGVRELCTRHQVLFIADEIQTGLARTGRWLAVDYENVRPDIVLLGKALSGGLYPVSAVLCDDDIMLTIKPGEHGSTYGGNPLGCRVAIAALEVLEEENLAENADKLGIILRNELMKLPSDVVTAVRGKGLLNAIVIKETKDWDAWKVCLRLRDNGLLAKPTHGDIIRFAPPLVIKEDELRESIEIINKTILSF
UniProt P13674: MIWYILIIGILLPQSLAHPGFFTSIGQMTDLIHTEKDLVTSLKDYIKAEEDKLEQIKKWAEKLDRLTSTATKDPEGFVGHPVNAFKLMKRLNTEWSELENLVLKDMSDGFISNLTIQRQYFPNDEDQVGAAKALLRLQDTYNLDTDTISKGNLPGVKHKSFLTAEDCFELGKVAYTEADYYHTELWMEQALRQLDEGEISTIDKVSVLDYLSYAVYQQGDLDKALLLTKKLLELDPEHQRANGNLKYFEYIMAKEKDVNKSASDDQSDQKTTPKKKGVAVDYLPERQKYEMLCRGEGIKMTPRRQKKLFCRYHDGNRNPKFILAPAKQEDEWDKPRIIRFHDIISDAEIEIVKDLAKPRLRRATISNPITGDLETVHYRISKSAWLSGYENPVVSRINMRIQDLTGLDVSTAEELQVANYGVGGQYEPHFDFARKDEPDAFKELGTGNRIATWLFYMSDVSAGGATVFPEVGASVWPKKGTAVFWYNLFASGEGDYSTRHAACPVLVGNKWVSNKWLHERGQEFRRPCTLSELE
UniProt Q9H074: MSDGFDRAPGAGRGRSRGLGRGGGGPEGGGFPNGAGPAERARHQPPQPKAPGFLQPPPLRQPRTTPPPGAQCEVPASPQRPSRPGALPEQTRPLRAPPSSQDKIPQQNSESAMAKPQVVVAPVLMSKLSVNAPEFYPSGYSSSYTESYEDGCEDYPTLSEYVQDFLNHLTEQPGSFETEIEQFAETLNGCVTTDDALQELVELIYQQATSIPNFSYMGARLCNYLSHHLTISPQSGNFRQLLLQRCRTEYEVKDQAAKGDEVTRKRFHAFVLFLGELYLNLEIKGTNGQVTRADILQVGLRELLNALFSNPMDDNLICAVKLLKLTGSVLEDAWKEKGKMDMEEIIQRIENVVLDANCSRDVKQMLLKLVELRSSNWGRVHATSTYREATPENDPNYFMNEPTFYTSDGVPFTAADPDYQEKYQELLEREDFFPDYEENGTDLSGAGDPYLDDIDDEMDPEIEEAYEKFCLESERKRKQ
UniProt P37198: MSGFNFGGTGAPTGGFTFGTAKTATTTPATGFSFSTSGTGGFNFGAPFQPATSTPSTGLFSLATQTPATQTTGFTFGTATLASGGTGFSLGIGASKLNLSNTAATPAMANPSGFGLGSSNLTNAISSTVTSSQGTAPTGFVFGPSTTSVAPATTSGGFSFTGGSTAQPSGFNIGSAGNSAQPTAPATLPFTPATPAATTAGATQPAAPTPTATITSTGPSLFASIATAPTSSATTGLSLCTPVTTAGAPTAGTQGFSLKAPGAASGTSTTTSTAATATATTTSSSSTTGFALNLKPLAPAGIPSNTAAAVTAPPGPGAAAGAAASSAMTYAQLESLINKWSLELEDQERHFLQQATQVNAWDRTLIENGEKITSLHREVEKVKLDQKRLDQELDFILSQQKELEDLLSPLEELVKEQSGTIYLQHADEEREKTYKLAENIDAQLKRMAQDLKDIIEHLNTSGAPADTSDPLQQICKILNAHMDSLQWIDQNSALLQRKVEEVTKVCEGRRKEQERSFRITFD
UniProt Q9Y5N6: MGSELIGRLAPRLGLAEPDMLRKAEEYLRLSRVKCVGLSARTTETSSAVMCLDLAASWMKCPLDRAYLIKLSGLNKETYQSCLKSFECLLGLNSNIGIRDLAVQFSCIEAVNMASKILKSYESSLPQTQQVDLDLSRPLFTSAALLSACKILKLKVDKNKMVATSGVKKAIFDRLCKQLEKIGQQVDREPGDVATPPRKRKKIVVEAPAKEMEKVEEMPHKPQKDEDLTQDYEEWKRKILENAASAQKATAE
UniProt Q9UKX7: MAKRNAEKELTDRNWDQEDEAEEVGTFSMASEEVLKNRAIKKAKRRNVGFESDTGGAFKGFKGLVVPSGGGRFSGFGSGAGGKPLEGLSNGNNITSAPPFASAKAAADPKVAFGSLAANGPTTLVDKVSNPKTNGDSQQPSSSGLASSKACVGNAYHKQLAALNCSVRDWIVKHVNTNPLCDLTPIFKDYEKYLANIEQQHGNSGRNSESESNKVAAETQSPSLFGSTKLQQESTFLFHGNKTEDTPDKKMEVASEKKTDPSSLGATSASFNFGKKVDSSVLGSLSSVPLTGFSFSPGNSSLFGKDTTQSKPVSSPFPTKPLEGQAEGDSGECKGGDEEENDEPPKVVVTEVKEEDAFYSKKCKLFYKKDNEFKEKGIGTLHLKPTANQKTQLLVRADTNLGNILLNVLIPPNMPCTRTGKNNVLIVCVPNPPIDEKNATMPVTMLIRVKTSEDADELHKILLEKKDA
UniProt Q9UQ80: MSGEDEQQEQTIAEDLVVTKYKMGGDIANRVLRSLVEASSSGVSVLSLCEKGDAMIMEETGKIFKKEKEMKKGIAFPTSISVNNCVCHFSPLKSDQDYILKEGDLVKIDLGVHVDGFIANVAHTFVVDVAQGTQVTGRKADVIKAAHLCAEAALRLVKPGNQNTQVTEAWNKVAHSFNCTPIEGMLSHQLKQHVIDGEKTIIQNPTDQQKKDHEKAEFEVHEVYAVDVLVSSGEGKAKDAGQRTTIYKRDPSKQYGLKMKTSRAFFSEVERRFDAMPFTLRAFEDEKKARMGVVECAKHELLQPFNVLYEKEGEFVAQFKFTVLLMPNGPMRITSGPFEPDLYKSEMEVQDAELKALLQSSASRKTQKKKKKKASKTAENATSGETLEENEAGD
UniProt Q8N573: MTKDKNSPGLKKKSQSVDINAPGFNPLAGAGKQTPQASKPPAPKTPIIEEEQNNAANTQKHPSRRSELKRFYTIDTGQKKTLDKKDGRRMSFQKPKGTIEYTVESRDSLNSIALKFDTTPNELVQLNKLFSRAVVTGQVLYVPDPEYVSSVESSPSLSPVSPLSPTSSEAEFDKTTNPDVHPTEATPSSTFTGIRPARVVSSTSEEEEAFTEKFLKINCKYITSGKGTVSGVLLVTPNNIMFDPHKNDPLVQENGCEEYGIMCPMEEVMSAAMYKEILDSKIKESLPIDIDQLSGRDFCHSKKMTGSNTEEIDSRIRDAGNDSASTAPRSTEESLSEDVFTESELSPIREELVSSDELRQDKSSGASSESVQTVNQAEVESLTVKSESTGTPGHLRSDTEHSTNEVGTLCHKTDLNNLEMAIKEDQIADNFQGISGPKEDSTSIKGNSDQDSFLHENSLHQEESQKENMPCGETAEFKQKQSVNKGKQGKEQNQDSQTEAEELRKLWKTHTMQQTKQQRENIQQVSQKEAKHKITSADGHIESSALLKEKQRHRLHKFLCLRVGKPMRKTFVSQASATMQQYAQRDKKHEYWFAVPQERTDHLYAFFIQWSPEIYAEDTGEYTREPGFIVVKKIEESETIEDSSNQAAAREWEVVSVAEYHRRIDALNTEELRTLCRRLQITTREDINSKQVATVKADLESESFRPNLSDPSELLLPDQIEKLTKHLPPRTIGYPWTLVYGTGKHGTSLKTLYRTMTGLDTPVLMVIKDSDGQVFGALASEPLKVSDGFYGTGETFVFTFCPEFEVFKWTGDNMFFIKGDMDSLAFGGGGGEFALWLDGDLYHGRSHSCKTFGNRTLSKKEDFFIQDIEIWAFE
UniProt O15504: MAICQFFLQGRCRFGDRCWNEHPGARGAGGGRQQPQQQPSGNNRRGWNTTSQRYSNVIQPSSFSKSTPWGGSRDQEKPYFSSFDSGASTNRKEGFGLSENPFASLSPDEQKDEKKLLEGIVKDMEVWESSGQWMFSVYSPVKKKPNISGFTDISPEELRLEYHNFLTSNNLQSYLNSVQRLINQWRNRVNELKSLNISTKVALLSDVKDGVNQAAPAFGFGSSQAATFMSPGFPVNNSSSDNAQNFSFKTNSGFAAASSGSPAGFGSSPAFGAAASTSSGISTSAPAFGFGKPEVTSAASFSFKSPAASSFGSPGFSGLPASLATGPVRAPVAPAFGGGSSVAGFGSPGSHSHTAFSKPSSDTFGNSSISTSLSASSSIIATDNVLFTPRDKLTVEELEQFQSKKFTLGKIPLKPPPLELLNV
UniProt Q9NX40: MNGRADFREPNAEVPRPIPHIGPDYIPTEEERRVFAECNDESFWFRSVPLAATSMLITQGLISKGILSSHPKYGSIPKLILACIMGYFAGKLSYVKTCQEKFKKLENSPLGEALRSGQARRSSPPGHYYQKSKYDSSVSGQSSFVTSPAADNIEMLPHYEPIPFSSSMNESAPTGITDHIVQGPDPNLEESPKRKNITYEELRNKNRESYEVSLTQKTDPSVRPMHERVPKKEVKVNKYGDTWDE
UniProt Q969R2: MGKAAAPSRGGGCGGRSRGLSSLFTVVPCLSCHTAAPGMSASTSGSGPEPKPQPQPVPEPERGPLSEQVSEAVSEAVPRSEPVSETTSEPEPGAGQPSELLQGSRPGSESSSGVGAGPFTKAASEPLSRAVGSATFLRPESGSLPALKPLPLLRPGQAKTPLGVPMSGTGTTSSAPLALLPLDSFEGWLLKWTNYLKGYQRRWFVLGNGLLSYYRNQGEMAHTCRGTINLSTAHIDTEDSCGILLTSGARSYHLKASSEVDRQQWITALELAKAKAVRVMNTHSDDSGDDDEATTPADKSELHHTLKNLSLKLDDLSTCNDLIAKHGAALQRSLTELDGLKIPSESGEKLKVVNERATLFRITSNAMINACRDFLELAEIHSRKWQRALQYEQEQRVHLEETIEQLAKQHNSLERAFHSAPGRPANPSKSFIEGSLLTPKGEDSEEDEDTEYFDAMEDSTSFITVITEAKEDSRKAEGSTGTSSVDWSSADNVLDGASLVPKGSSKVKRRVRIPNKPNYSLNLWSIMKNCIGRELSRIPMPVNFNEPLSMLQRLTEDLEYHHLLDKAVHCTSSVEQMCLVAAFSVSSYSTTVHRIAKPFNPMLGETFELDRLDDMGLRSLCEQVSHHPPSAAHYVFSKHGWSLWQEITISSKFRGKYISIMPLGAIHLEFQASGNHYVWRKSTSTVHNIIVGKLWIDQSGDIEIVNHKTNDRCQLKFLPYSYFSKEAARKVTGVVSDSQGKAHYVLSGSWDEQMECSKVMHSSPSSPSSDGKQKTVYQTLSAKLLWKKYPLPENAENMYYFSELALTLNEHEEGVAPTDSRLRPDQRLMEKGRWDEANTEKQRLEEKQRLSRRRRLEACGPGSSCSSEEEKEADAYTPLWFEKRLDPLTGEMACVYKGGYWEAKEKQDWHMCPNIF
UniProt O96013: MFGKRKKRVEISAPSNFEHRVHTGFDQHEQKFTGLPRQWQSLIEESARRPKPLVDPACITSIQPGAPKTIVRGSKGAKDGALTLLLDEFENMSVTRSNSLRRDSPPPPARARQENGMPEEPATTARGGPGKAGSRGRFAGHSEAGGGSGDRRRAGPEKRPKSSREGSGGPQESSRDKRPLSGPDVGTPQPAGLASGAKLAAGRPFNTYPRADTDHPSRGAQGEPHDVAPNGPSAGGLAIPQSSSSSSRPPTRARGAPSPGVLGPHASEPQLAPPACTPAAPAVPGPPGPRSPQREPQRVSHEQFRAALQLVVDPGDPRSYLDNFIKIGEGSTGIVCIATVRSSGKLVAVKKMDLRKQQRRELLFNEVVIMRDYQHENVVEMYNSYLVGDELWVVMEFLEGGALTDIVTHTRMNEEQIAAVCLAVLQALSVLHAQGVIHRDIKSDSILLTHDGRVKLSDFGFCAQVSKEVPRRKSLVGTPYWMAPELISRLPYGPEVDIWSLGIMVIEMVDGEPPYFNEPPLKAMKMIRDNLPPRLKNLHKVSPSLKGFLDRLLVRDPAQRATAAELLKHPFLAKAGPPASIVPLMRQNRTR

Legend:
Assay in all cases: log2 fold change, soluble protein after heating vs DMSO (PISA); higher = thermal stabilisation; K562 lysate, 10 uM; active = over 0.2 and 3.5 SD of the protein, either way, in both replicates (recomputed)
[1] = compound: C#Cc1cccc(Nc2ncnc3cc(OCCOC)c(OCCOC)cc23)c1 [erlotinib]
Procedure, shortened: (§1)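 To prepare the extract, K562 pellets were dounce-homogenised in PBS pH 7.4 with 1 mM MgCl2, giving crude material at 1 mg/mL protein. This was treated with 10 μM compound for 30 min, then heated in aliquots for 3 min over 48°C-58°C before pooling and addition of NP-40 to 0.5% at 4°C. Centrifugation at 21,000xg for 90 min left soluble protein in the supernatant, which TMTpro 16plex LC-MS/MS quantified with equalised channel sums. Results are log-two fold changes in thermal stability compared with solvent controls, from duplicates.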

[2] = compound: C/C(=N\NC(=O)C1=CC(=CC=C1)S(=O)(=O)N2CCOCC2)/C3=C(C=CC(=C3)Cl)O
Procedure, shortened: as §1

[3] = compound: C1=CC(=CC=C1C2=NC3=C(N2)C=C(C=C3)C(=O)N)OC4=CC=C(C=C4)Cl
Procedure, shortened: as §1

[4] = compound: C1=CC2=C(C=CC(=C2)/C=C\3/C(=O)NC(=NCC4=CC=CS4)S3)N=C1
Procedure, shortened: as §1

[5] = compound: C1=CC2=NC=CN=C2C=C1/C=C/3\C(=O)NC(=O)S3
Procedure, shortened: as §1

[6] = compound: C1=CC=C(C=C1)C2=NC(=C(N2)C3=CC=NC=C3)C4=CC(=C(C=C4)Cl)O
Procedure, shortened: as §1

[7] = compound: C1=CC=C2C(=C1)C3=NNC4=CC=CC(=C43)C2=O
Procedure, shortened: as §1

[8] = compound: C1CCN(C1)C(=O)NC2=CC=CC(=C2)NC3=NC=C(C(=N3)NCCC4=CN=CN4)Br
Procedure, shortened: as §1

[9] = compound: C1CN(CCC1(CC2=CC=C(C=C2)Cl)N)C3=NC=NC4=C3C=CN4
Procedure, shortened: as §1

[10] = compound: C1COCCN1CCN2C3=CC=CC=C3N=C2NC(=O)C4=CC(=CC=C4)[N+](=O)[O-] [IRAK-1-4 Inhibitor I]
Procedure, shortened: as §1

Measured: log2 fold change

OXSR1 (UniProt O95747)
inactive: [1] 0.014 | [2] 0.055 | [3] -0.005 | [4] 0.016 | [5] 0.01 | [6] -0.016 | [7] -0.054 | [8] -0.017 | [9] 0.034 | [10] 0

ORC5 (UniProt O43913)
inactive: [1] 0.014 | [2] 0.021 | [3] -0.017 | [4] 0.003 | [5] 0.045 | [6] 0.029 | [7] -0.016 | [8] -0.085 | [9] -0.061 | [10] -0.068

PAF1 (UniProt Q8N7H5)
inactive: [1] 0.022 | [2] 0.021 | [3] 0 | [4] 0.027 | [5] -0.03 | [6] 0.018 | [7] -0.011 | [8] -0.017 | [9] 0 | [10] -0.012

OAT (UniProt P04181)
inactive: [1] -0.006 | [2] -0.074 | [3] -0.04 | [4] 0.023 | [5] 0.007 | [6] -0.017 | [7] -0.038 | [8] -0.033 | [9] 0.008 | [10] 0.018

OXA1L (UniProt Q15070)
inactive: [1] -0.024 | [2] -0.001 | [3] -0.161 | [4] 0.008 | [5] 0.017 | [6] 0.009 | [7] -0.014 | [8] 0.008 | [9] -0.009 | [10] -0.033

OTUD4 (UniProt Q01804)
inactive: [1] -0.004 | [2] -0.043 | [3] 0 | [4] -0.071 | [5] -0.069 | [6] -0.006 | [7] -0.024 | [8] -0.004 | [9] 0.019 | [10] -0.035

P4HA1 isoform 2 (UniProt P13674)
inactive: [1] -0.039 | [2] 0.098 | [3] -0.069 | [4] -0.06 | [5] -0.118 | [6] -0.077 | [7] 0 | [8] -0.044 | [9] -0.026 | [10] -0.062

PAIP1 (UniProt Q9H074)
inactive: [1] -0.031 | [2] -0.069 | [3] 0.032 | [4] 0.041 | [5] 0 | [6] 0.012 | [7] 0.039 | [8] -0.011 | [9] -0.003 | [10] -0.025

NUP62 (UniProt P37198)
inactive: [1] 0.014 | [2] -0.013 | [3] 0 | [4] -0.015 | [5] -0.048 | [6] -0.026 | [7] 0.006 | [8] 0.005 | [9] -0.004 | [10] 0.03

ORC6 (UniProt Q9Y5N6)
inactive: [1] -0.033 | [2] 0.097 | [3] 0.015 | [4] 0.096 | [5] -0.018 | [6] 0.061 | [7] 0 | [8] -0.043 | [9] -0.144 | [10] -0.074

Copied from the entries so far (7 entries):
OXSR1 (UniProt O95747)
inactive: [1] 0.014 | [2] 0.055 | [3] -0.005 | [4] 0.016 | [5] 0.01 | [6] -0.016 | [7] -0.054 | [8] -0.017 | [9] 0.034 | [10] 0

ORC5 (UniProt O43913)
inactive: [1] 0.014 | [2] 0.021 | [3] -0.017 | [4] 0.003 | [5] 0.045 | [6] 0.029 | [7] -0.016 | [8] -0.085 | [9] -0.061 | [10] -0.068

PAF1 (UniProt Q8N7H5)
inactive: [1] 0.022 | [2] 0.021 | [3] 0 | [4] 0.027 | [5] -0.03 | [6] 0.018 | [7] -0.011 | [8] -0.017 | [9] 0 | [10] -0.012

OAT (UniProt P04181)
inactive: [1] -0.006 | [2] -0.074 | [3] -0.04 | [4] 0.023 | [5] 0.007 | [6] -0.017 | [7] -0.038 | [8] -0.033 | [9] 0.008 | [10] 0.018

OXA1L (UniProt Q15070)
inactive: [1] -0.024 | [2] -0.001 | [3] -0.161 | [4] 0.008 | [5] 0.017 | [6] 0.009 | [7] -0.014 | [8] 0.008 | [9] -0.009 | [10] -0.033

OTUD4 (UniProt Q01804)
inactive: [1] -0.004 | [2] -0.043 | [3] 0 | [4] -0.071 | [5] -0.069 | [6] -0.006 | [7] -0.024 | [8] -0.004 | [9] 0.019 | [10] -0.035

P4HA1 isoform 2 (UniProt P13674)
inactive: [1] -0.039 | [2] 0.098 | [3] -0.069 | [4] -0.06 | [5] -0.118 | [6] -0.077 | [7] 0 | [8] -0.044 | [9] -0.026 | [10] -0.062

(further entries)

NUP50 (UniProt Q9UKX7)
inactive: [1] 0.012 | [2] -0.064 | [3] 0.02 | [4] -0.005 | [5] -0.014 | [6] 0.012 | [7] -0.001 | [8] -0.025 | [9] -0.001 | [10] -0.012

NUP214 (UniProt P35658)
inactive: [1] -0.013 | [2] -0.031 | [3] 0.019 | [4] -0.001 | [5] 0.008 | [6] -0.075 | [7] -0.029 | [8] -0.017 | [9] -0.015 | [10] 0.035

OMA1 (UniProt Q96E52)
inactive: [1] -0.029 | [2] -0.002 | [3] -0.07 | [4] -0.007 | [5] 0.036 | [6] 0.005 | [7] 0.008 | [8] 0.021 | [9] -0.025 | [10] 0.028

PACSIN2 (UniProt Q9UNF0)
inactive: [1] 0.012 | [2] -0.043 | [3] -0.019 | [4] -0.007 | [5] -0.009 | [6] 0.009 | [7] 0.026 | [8] 0.01 | [9] 0.021 | [10] -0.021

PA2G4 (UniProt Q9UQ80)
inactive: [1] 0.002 | [2] 0.034 | [3] 0.002 | [4] 0.002 | [5] -0.008 | [6] 0.003 | [7] -0.015 | [8] 0.008 | [9] -0.017 | [10] -0.015

PACS1 (UniProt Q6VY07)
inactive: [1] 0.017 | [2] 0.006 | [3] 0.022 | [4] -0.006 | [5] -0.002 | [6] -0.027 | [7] -0.029 | [8] 0.009 | [9] -0.003 | [10] -0.006

NUP188 (UniProt Q5SRE5)
inactive: [1] 0.066 | [2] 0.011 | [3] -0.01 | [4] 0.004 | [5] -0.007 | [6] -0.03 | [7] -0.034 | [8] 0.027 | [9] -0.003 | [10] 0.023

OXR1 (UniProt Q8N573)
inactive: [1] -0.025 | [2] 0.048 | [3] 0.019 | [4] 0 | [5] -0.029 | [6] -0.018 | [7] 0.057 | [8] -0.084 | [9] -0.009 | [10] -0.001

PAAT (UniProt Q9H8K7)
inactive: [1] 0.003 | [2] 0.078 | [3] 0.109 | [4] 0.017 | [5] 0.016 | [6] 0.029 | [7] -0.017 | [8] 0.02 | [9] -0.026 | [10] -0.004

NUP42 (UniProt O15504)
inactive: [1] 0.036 | [2] -0.049 | [3] 0.039 | [4] -0.089 | [5] -0.096 | [6] 0.001 | [7] 0.062 | [8] 0.091 | [9] 0.151 | [10] 0.034

OCIAD1 (UniProt Q9NX40)
inactive: [1] 0.006 | [2] 0.047 | [3] 0.018 | [4] 0.001 | [5] 0.002 | [6] 0.024 | [7] 0.003 | [8] -0.008 | [9] 0.019 | [10] 0.02

ORC3 isoform 2 (UniProt Q9UBD5)
inactive: [1] -0.006 | [2] -0.048 | [3] -0.046 | [4] 0.004 | [5] 0.053 | [6] -0.011 | [7] -0.045 | [8] -0.015 | [9] -0.007 | [10] -0.008

OSTM1 (UniProt Q86WC4)
inactive: [1] -0.066 | [2] 0.009 | [3] -0.003 | [4] 0.045 | [5] 0.003 | [6] -0.044 | [7] -0.028 | [8] -0.002 | [9] -0.017 | [10] -0.031

OSBP2 (UniProt Q969R2)
inactive: [1] -0.019 | [2] -0.254 | [3] 0.08 | [4] 0.032 | [5] -0.039 | [6] -0.077 | [7] -0.075 | [8] 0.037 | [9] -0.01 | [10] -0.061

PAK1IP1 (UniProt Q9NWT1)
inactive: [1] 0.006 | [2] -0.021 | [3] -0.01 | [4] 0.042 | [5] 0.006 | [6] 0.014 | [7] 0.044 | [8] 0.029 | [9] -0.012 | [10] 0.001

PAK4 (UniProt O96013)
inactive: [1] 0 | [2] -0.076 | [3] 0.072 | [4] 0.052 | [5] -0.006 | [6] -0.005 | [7] 0.335 | [8] 0.469 | [9] 0.124 | [10] -0.044

OSBP (UniProt P22059)
inactive: [1] -0.023 | [2] -0.056 | [3] 0.037 | [4] -0.006 | [5] 0.017 | [6] -0.031 | [7] -0.031 | [8] -0.016 | [9] 0.016 | [10] -0.112
